# Source: the supplement of paper PMC9015667
# Where a name gives a salt, the structure may show the parent alone. Some of the results follow. Most values come without repeats; read them as rough.
# Key:
# Experiment in all cases: reduction in cell viability relative to untreated/vehicle; higher = more growth inhibition
# Settings in all cases: 200 nM; 72 h
# M229P = system: M229P (parental melanoma line)
# M229R = system: M229R (matched melanoma line resistant to BRAF inhibitors)
# M238P = system: M238P (parental melanoma line)
# M238R = system: M238R (matched melanoma line resistant to BRAF inhibitors)
# M249P = system: M249P (parental melanoma line)
# M249R = system: M249R (matched melanoma line resistant to BRAF inhibitors)
# UACC62P = system: UACC62P (parental melanoma line)
# UACC62R = system: UACC62R (matched melanoma line resistant to BRAF inhibitors)
SMILES,reduction in cell viability (M229P) [%],reduction in cell viability (M229R) [%],reduction in cell viability (M238P) [%],reduction in cell viability (M238R) [%],reduction in cell viability (M249P) [%],reduction in cell viability (M249R) [%],reduction in cell viability (UACC62P) [%],reduction in cell viability (UACC62R) [%]
CC(C)C[C@H](NC(=O)CNC(=O)c1cc(Cl)ccc1Cl)B(O)O,91.3,84.6,90.6,94.5,92.9,93.3,89.6,87.4
CCCCCCCCCCCCCCCC(=O)O[C@@H]1[C@@H](O)[C@@H](O)[C@@H]([C@H](NC(=O)[C@@H]2C[C@@H](CCC)CN2C)[C@H](C)Cl)O[C@@H]1SC [Clindamycin palmitate hydrochloride],< 0,< 0,< 0,< 0,< 0,< 0,< 0,< 0
COc1cc2nccc(Oc3ccc(NC(=O)C4(C(=O)Nc5ccc(F)cc5)CC4)cc3)c2cc1OC,< 0,< 0,< 0,< 0,< 0,< 0,< 0,< 0
CCn1cc(C(=O)O)c(=O)c2cc(F)c(N3CCNCC3)nc21 [Enoxacin],< 0,< 0,< 0,< 0,< 0,< 0,< 0,< 0
CCCCNc1cc(C(=O)O)cc(S(N)(=O)=O)c1Oc1ccccc1 [Bumetanide],< 0,3.06,< 0,< 0,< 0,< 0,< 0,< 0
CC(C)(C#N)c1cc(Cn2cncn2)cc(C(C)(C)C#N)c1 [Anastrozole],< 0,< 0,< 0,< 0,< 0,< 0,< 0,< 0
COc1ccc(S(=O)(=O)Nc2cc(-c3c(O)ccc4ccccc34)c(O)c3ccccc23)cc1,< 0,< 0,< 0,< 0,< 0,< 0,< 0,< 0
COc1cc(N2CCC(N3CCN(C)CC3)CC2)ccc1Nc1ncc(Cl)c(Nc2ccccc2S(=O)(=O)C(C)C)n1,18.4,40.2,23.6,14.1,< 0,< 0,< 0,18.9
NS(=O)(=O)OC[C@@H]1C[C@@H](n2ccc3c(N[C@H]4CCc5ccccc54)ncnc32)C[C@@H]1O,29.7,39.2,76.8,19.6,44.3,15.7,35.1,83.8
CC(C)OC(=O)CCC/C=C\C[C@@H]1[C@@H](/C=C/[C@@H](O)COc2cccc(C(F)(F)F)c2)[C@H](O)C[C@@H]1O [Travoprost],< 0,< 0,< 0,< 0,< 0,< 0,< 0,< 0
CN1C(C(=O)Nc2ccccn2)=C(O)c2ccccc2S1(=O)=O [Piroxicam],10.3,< 0,< 0,< 0,< 0,5.07,< 0,< 0
O=C(Nc1cccc(Cl)c1)Nc1ncc(CCNc2ncnc3ccsc23)s1,< 0,< 0,24.1,14.6,< 0,< 0,15.9,41.9
Nc1nc(N)nc(-c2cc(Cl)ccc2Cl)n1 [Irsogladine maleate],< 0,< 0,< 0,< 0,< 0,< 0,0.1,< 0
C=CC(=O)Nc1cc2c(Nc3ccc(F)c(Cl)c3)ncnc2cc1C#CC(C)(C)N1CCN(C)CC1,9.79,19.9,10.6,5.93,< 0,< 0,< 0,2.82
CC(C)(C)[C@H](NC(=O)c1ccc(N)c(Cl)c1)C(=O)N1CCC[C@H]1C(=O)N[C@H](C#N)CC(=O)O,< 0,< 0,< 0,< 0,< 0,< 0,< 0,< 0
COc1ccccc1N1CCN(CCN(C(=O)C2CCCCC2)c2ccccn2)CC1,< 0,< 0,< 0,< 0,< 0,< 0,13.1,< 0
COc1cc(N2CCN(C)CC2)ccc1Nc1nc(N)c(C(=O)c2c(Cl)cccc2Cl)s1,< 0,< 0,< 0,< 0,< 0,< 0,< 0,< 0
CC(C)c1nc(CN(C)C(=O)N[C@H](C(=O)N[C@@H](Cc2ccccc2)C[C@H](O)[C@H](Cc2ccccc2)NC(=O)OCc2cncs2)C(C)C)cs1 [Ritonavir],< 0,< 0,< 0,< 0,< 0,< 0,< 0,< 0
N#CCNC(=O)c1ccc(-c2ccnc(Nc3ccc(N4CCOCC4)cc3)n2)cc1,< 0,< 0,< 0,< 0,< 0,< 0,< 0,< 0
Cc1ccc(S(=O)(=O)NC(=O)NN2CC3CCCC3C2)cc1 (stereo not drawn) [Gliclazide],2.6,< 0,< 0,< 0,< 0,< 0,< 0,< 0
Cc1c(-c2ccc(O)cc2)n(Cc2ccc(OCCN3CCCCCC3)cc2)c2ccc(O)cc12 [Bazedoxifene],< 0,< 0,< 0,< 0,< 0,< 0,< 0,< 0

# 3 structures already listed, arranged by formula weight, ascending:
SMILES,reduction in cell viability (M229P) [%],reduction in cell viability (M229R) [%],reduction in cell viability (M238P) [%],reduction in cell viability (M238R) [%],reduction in cell viability (M249P) [%],reduction in cell viability (M249R) [%],reduction in cell viability (UACC62P) [%],reduction in cell viability (UACC62R) [%]
Cc1ccc(S(=O)(=O)NC(=O)NN2CC3CCCC3C2)cc1 (stereo not drawn) [Gliclazide],2.6,< 0,< 0,< 0,< 0,< 0,< 0,< 0
COc1cc(N2CCN(C)CC2)ccc1Nc1nc(N)c(C(=O)c2c(Cl)cccc2Cl)s1,< 0,< 0,< 0,< 0,< 0,< 0,< 0,< 0
COc1cc(N2CCC(N3CCN(C)CC3)CC2)ccc1Nc1ncc(Cl)c(Nc2ccccc2S(=O)(=O)C(C)C)n1,18.4,40.2,23.6,14.1,< 0,< 0,< 0,18.9
